Results deposited as PubChem BioAssay AID602196 (INSERM, 2012).

Aim: 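Genes whose knock-down alters cisplatin killing of lung cancer cells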
Cell system: human A549 lung cancer cells
Reagent: siRNA pair against human genes
Timing: 48 h transfection before cisplatin; time from cisplatin to read-out not stated
Treatment: cisplatin at a dose killing half of control-siRNA cells; exact dose and duration not given
Measurement: 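Shift in cisplatin death relative to control siRNA, from -50 (all cells die) to +50 (no cells die); siRNAs harmful on their own scored 0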
Reading the numbers: two-siRNA summed score (-2 to +2): higher = both siRNAs protect from cisplatin killing; -2 means both sensitise; mean protection from cisplatin (shift in death): higher = protection from cisplatin killing
Call rule: 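Each siRNA scores 0 if harmful alone by LDH or WST-1, otherwise +1 if it reduces and -1 if it increases cisplatin killing; a gene is active when both siRNAs agree (sum +2 or -2)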
Meaning of the calls: active = both siRNAs shift cisplatin killing the same way; inactive = no consistent shift, or siRNA harmful alone
The deposit covers about 23,000 reagents; shown is an unselected part. Of all reagents, 455 (2%) are marked active. 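Active includes both protection and sensitisation; some change values fall well beyond the stated -50 to +50 range.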 Not all columns of the deposit are shown. Not given: the amount of reagent.

{"target": "ASMTL-AS1 (ASMTL antisense RNA 1)", "PubChem SID": "SID131513652", "two-siRNA summed score (-2 to +2)": 0, "mean protection from cisplatin (shift in death) (%)": 6.8, "outcome": "inactive"}
{"target": "LOC441002", "PubChem SID": "SID131516638", "two-siRNA summed score (-2 to +2)": 0, "mean protection from cisplatin (shift in death) (%)": 11.3, "outcome": "inactive"}
{"target": "INVS (inversin)", "PubChem SID": "SID131520362", "two-siRNA summed score (-2 to +2)": 1, "mean protection from cisplatin (shift in death) (%)": 9.6, "outcome": "inactive"}
{"target": "DNPH1 (2'-deoxynucleoside 5'-phosphate N-hydrolase 1)", "PubChem SID": "SID131511539", "two-siRNA summed score (-2 to +2)": 0, "mean protection from cisplatin (shift in death) (%)": 4.5, "outcome": "inactive"}
{"target": "GSR (glutathione-disulfide reductase)", "PubChem SID": "SID131504634", "two-siRNA summed score (-2 to +2)": 0, "mean protection from cisplatin (shift in death) (%)": -4.9, "outcome": "inactive"}
{"target": "HMBS (hydroxymethylbilane synthase)", "PubChem SID": "SID131502235", "two-siRNA summed score (-2 to +2)": -1, "mean protection from cisplatin (shift in death) (%)": -4.1, "outcome": "inactive"}
{"target": "AMDHD1 (amidohydrolase domain containing 1)", "PubChem SID": "SID131515367", "two-siRNA summed score (-2 to +2)": 0, "mean protection from cisplatin (shift in death) (%)": 9.1, "outcome": "inactive"}
{"target": "LINC00272 (long independently transcribed non-coding RNA 272)", "PubChem SID": "SID131517407", "two-siRNA summed score (-2 to +2)": 0, "mean protection from cisplatin (shift in death) (%)": 13.3, "outcome": "inactive"}
{"target": "H2AC17 (H2A clustered histone 17)", "PubChem SID": "SID131520732", "two-siRNA summed score (-2 to +2)": 1, "mean protection from cisplatin (shift in death) (%)": 10.9, "outcome": "inactive"}
{"target": "PEBP4 (phosphatidylethanolamine binding protein 4)", "PubChem SID": "SID131503135", "two-siRNA summed score (-2 to +2)": 0, "mean protection from cisplatin (shift in death) (%)": -13, "outcome": "inactive"}
{"target": "LBR (lamin B receptor)", "PubChem SID": "SID131517910", "two-siRNA summed score (-2 to +2)": 0, "mean protection from cisplatin (shift in death) (%)": 15.4, "outcome": "inactive"}
{"target": "MRTO4 (MRT4 homolog, ribosome maturation factor)", "PubChem SID": "SID131509828", "two-siRNA summed score (-2 to +2)": 0, "mean protection from cisplatin (shift in death) (%)": 2.6, "outcome": "inactive"}
{"target": "BOLA1 (bolA family member 1)", "PubChem SID": "SID131512090", "two-siRNA summed score (-2 to +2)": 0, "mean protection from cisplatin (shift in death) (%)": 5.1, "outcome": "inactive"}
{"target": "GABPB2 (GA binding protein transcription factor subunit beta 2)", "PubChem SID": "SID131506102", "two-siRNA summed score (-2 to +2)": 0, "mean protection from cisplatin (shift in death) (%)": -2, "outcome": "inactive"}
{"target": "LOC442718", "PubChem SID": "SID131511286", "two-siRNA summed score (-2 to +2)": 0, "mean protection from cisplatin (shift in death) (%)": 4.2, "outcome": "inactive"}
{"target": "LOC401700", "PubChem SID": "SID131508688", "two-siRNA summed score (-2 to +2)": 0, "mean protection from cisplatin (shift in death) (%)": 1.3, "outcome": "inactive"}
{"target": "XIRP1 (xin actin binding repeat containing 1)", "PubChem SID": "SID131506188", "two-siRNA summed score (-2 to +2)": 0, "mean protection from cisplatin (shift in death) (%)": -1.9, "outcome": "inactive"}
{"target": "LOC391773", "PubChem SID": "SID131521944", "two-siRNA summed score (-2 to +2)": 1, "mean protection from cisplatin (shift in death) (%)": 15.5, "outcome": "inactive"}
{"target": "GRAMD1A (GRAM domain containing 1A)", "PubChem SID": "SID131507227", "two-siRNA summed score (-2 to +2)": 0, "mean protection from cisplatin (shift in death) (%)": -0.4, "outcome": "inactive"}
{"target": "MYT1L (myelin transcription factor 1 like)", "PubChem SID": "SID131518627", "two-siRNA summed score (-2 to +2)": 0, "mean protection from cisplatin (shift in death) (%)": 22.8, "outcome": "inactive"}
{"target": "PRB3 (proline rich protein BstNI subfamily 3)", "PubChem SID": "SID131511313", "two-siRNA summed score (-2 to +2)": 0, "mean protection from cisplatin (shift in death) (%)": 4.2, "outcome": "inactive"}
{"target": "TYW3 (tRNA-yW synthesizing protein 3 homolog)", "PubChem SID": "SID131521635", "two-siRNA summed score (-2 to +2)": 1, "mean protection from cisplatin (shift in death) (%)": 14.3, "outcome": "inactive"}
{"target": "RUNDC3B (RUN domain containing 3B)", "PubChem SID": "SID131519283", "two-siRNA summed score (-2 to +2)": 1, "mean protection from cisplatin (shift in death) (%)": 4.5, "outcome": "inactive"}
{"target": "ZFAT (zinc finger and AT-hook domain containing)", "PubChem SID": "SID131507671", "two-siRNA summed score (-2 to +2)": 0, "mean protection from cisplatin (shift in death) (%)": 0.1, "outcome": "inactive"}
{"target": "PAFAH1B3", "PubChem SID": "SID131500546", "two-siRNA summed score (-2 to +2)": -1, "mean protection from cisplatin (shift in death) (%)": -22, "outcome": "inactive"}
{"target": "IQCK (IQ motif containing K)", "PubChem SID": "SID131515617", "two-siRNA summed score (-2 to +2)": 0, "mean protection from cisplatin (shift in death) (%)": 9.4, "outcome": "inactive"}
{"target": "TRHR (thyrotropin releasing hormone receptor)", "PubChem SID": "SID131503618", "two-siRNA summed score (-2 to +2)": 0, "mean protection from cisplatin (shift in death) (%)": -8.8, "outcome": "inactive"}
{"target": "LOC441007", "PubChem SID": "SID131510925", "two-siRNA summed score (-2 to +2)": 0, "mean protection from cisplatin (shift in death) (%)": 3.8, "outcome": "inactive"}
{"target": "ANAPC7 (anaphase promoting complex subunit 7)", "PubChem SID": "SID131503345", "two-siRNA summed score (-2 to +2)": 0, "mean protection from cisplatin (shift in death) (%)": -10.8, "outcome": "inactive"}
{"target": "CTAGE15 (CTAGE family member 15)", "PubChem SID": "SID131516602", "two-siRNA summed score (-2 to +2)": 0, "mean protection from cisplatin (shift in death) (%)": 11.2, "outcome": "inactive"}
{"target": "WFS1 (wolframin ER transmembrane glycoprotein)", "PubChem SID": "SID131512964", "two-siRNA summed score (-2 to +2)": 0, "mean protection from cisplatin (shift in death) (%)": 6, "outcome": "inactive"}

5 entries from above, reformatted:
LBR (lamin B receptor) [SID131517910]
- two-siRNA summed score (-2 to +2): 0
- mean protection from cisplatin (shift in death) (%): 15.4
- outcome: inactive

MRTO4 (MRT4 homolog, ribosome maturation factor) [SID131509828]
- two-siRNA summed score (-2 to +2): 0
- mean protection from cisplatin (shift in death) (%): 2.6
- outcome: inactive

BOLA1 (bolA family member 1) [SID131512090]
- two-siRNA summed score (-2 to +2): 0
- mean protection from cisplatin (shift in death) (%): 5.1
- outcome: inactive

GABPB2 (GA binding protein transcription factor subunit beta 2) [SID131506102]
- two-siRNA summed score (-2 to +2): 0
- mean protection from cisplatin (shift in death) (%): -2
- outcome: inactive

LOC442718 [SID131511286]
- two-siRNA summed score (-2 to +2): 0
- mean protection from cisplatin (shift in death) (%): 4.2
- outcome: inactive
